According to the supplement of paper PMC10849652:
This is one part of the list.

Amino acid sequences for entries named in this document (tags omitted). A change or cut given only in a name is not applied to a line headed by its entry.
UniProt Q9Y6M7: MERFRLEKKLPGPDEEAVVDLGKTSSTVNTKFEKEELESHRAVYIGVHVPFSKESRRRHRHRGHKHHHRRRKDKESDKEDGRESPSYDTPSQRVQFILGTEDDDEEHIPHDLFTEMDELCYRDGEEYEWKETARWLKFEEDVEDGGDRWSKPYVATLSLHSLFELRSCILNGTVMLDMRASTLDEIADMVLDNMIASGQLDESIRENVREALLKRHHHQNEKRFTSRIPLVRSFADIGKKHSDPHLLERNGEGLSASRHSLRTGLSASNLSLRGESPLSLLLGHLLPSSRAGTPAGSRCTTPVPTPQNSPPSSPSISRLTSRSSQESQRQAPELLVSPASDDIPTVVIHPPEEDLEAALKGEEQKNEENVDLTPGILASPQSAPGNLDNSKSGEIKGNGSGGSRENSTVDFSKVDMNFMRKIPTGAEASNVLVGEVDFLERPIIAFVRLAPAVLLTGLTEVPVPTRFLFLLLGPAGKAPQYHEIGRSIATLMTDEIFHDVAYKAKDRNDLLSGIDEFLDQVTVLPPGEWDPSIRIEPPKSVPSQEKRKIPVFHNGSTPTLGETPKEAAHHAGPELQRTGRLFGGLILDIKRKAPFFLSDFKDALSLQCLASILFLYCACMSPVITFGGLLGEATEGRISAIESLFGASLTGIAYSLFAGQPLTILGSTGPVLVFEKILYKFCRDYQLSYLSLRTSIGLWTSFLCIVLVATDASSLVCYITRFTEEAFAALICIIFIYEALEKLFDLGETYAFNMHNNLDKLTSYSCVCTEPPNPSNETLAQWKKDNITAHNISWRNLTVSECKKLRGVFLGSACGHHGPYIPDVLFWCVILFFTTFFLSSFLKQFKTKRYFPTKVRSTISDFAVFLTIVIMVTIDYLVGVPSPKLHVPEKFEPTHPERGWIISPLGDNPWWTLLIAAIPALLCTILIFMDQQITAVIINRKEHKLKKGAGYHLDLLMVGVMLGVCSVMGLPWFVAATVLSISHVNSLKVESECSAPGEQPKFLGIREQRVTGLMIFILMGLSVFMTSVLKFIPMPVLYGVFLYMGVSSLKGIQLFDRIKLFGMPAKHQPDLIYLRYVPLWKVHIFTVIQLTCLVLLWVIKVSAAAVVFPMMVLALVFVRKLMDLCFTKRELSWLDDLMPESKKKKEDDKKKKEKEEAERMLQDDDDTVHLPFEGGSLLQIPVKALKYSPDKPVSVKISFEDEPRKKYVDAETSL
UniProt Q9H2X9: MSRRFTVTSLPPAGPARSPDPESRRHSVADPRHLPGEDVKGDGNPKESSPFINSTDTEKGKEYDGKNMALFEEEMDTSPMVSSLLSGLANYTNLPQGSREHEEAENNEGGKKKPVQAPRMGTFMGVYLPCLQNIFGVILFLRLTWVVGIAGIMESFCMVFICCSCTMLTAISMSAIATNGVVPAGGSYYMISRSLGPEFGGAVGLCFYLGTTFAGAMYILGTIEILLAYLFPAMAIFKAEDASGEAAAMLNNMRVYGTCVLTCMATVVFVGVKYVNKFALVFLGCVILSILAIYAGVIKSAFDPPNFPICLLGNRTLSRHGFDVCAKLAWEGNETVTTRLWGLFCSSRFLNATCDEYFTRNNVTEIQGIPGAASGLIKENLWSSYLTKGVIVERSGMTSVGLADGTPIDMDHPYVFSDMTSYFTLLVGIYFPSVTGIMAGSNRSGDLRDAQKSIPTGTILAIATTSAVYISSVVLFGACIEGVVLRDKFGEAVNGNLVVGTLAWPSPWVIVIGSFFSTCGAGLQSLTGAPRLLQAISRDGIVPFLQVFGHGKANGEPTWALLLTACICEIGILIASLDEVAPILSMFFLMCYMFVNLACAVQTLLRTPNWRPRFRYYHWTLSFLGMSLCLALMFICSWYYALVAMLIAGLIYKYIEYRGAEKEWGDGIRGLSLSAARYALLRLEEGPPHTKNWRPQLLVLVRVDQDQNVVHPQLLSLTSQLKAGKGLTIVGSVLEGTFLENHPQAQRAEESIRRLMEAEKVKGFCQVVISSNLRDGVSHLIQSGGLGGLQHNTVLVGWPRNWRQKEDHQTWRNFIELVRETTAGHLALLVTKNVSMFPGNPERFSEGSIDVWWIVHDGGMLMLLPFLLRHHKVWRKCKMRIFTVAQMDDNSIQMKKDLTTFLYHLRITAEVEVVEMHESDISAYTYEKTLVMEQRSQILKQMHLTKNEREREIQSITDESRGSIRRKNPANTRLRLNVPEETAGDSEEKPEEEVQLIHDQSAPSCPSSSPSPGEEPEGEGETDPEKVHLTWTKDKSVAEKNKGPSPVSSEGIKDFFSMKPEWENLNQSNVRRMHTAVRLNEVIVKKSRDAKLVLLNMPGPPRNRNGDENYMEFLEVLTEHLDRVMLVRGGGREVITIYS
UniProt Q8WUX1, whole entry, looked up: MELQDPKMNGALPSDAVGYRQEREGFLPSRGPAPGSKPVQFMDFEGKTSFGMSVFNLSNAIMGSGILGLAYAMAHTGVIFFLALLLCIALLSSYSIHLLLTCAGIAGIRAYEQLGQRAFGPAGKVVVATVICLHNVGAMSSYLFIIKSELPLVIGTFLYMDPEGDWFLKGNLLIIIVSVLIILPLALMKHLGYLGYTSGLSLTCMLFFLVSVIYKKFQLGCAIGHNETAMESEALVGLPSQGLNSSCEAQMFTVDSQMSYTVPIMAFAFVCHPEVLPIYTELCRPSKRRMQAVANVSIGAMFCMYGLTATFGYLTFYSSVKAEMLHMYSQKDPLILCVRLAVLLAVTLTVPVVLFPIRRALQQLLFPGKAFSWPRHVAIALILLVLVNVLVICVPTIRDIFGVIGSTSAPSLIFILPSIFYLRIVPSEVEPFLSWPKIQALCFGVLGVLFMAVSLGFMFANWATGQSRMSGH
UniProt Q7Z769: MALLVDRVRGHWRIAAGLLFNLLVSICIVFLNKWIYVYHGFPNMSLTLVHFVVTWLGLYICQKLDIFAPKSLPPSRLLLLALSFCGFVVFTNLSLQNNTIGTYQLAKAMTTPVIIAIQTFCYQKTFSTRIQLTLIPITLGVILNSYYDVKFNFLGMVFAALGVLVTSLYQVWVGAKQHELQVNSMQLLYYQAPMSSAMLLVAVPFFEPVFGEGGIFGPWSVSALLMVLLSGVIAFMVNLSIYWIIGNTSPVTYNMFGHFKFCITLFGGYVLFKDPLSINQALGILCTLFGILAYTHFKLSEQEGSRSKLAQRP
UniProt Q6PCB7: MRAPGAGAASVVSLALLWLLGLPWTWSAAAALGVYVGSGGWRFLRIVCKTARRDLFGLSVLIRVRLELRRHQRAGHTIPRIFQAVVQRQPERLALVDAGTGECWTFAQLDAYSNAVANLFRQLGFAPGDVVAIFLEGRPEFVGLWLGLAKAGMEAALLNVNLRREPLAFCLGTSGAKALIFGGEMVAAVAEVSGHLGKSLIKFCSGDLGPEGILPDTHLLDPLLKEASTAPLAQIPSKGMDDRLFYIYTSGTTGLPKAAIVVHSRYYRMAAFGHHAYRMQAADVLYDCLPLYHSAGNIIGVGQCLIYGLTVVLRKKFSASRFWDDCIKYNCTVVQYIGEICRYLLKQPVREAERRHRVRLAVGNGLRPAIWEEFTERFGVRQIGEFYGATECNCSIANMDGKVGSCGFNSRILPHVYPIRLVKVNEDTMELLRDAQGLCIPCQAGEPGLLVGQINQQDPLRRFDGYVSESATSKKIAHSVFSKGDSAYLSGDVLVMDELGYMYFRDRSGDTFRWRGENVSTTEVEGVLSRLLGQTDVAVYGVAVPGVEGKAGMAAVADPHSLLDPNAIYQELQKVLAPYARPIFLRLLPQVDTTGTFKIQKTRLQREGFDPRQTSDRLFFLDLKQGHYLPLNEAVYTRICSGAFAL
UniProt Q0GE19: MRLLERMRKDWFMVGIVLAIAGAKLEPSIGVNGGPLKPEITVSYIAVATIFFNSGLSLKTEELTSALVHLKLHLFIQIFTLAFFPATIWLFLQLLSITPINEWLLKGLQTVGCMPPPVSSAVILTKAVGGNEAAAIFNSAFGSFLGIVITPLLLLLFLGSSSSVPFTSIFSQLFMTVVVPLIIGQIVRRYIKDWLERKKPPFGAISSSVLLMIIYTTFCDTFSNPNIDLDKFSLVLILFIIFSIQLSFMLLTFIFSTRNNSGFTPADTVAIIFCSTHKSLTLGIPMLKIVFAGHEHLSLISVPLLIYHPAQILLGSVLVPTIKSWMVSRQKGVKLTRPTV
UniProt Q9H0C2: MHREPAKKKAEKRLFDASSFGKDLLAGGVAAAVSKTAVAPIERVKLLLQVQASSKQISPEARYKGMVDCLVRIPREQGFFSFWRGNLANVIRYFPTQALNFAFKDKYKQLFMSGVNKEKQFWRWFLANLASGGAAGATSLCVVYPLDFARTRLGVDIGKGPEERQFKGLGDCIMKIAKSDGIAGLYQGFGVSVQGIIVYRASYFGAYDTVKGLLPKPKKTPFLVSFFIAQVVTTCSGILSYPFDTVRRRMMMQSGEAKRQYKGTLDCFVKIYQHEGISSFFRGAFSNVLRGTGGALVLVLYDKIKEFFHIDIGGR
UniProt Q969S0: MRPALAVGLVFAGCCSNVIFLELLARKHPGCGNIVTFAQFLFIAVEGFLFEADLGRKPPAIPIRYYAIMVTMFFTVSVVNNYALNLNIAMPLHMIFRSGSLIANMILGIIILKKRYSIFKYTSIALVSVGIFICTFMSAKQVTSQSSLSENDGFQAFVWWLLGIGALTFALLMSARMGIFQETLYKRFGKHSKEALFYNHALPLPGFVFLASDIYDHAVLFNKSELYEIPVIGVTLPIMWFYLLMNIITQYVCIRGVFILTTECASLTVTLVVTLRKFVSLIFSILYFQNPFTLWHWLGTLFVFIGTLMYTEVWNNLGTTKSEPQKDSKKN
UniProt Q96GZ6: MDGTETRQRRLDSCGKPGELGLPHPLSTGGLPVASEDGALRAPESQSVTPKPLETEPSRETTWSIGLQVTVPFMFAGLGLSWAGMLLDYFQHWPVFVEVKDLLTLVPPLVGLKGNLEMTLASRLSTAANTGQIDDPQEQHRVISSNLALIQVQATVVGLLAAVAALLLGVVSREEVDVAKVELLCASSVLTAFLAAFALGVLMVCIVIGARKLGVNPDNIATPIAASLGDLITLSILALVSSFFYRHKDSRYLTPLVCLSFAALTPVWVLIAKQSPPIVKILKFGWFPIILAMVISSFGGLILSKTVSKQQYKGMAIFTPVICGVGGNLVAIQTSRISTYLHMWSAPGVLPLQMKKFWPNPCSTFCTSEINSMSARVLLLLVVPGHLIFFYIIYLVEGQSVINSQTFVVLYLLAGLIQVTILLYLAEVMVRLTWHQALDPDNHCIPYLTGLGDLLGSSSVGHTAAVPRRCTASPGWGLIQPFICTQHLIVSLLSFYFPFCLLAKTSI
UniProt O14975, whole entry, looked up: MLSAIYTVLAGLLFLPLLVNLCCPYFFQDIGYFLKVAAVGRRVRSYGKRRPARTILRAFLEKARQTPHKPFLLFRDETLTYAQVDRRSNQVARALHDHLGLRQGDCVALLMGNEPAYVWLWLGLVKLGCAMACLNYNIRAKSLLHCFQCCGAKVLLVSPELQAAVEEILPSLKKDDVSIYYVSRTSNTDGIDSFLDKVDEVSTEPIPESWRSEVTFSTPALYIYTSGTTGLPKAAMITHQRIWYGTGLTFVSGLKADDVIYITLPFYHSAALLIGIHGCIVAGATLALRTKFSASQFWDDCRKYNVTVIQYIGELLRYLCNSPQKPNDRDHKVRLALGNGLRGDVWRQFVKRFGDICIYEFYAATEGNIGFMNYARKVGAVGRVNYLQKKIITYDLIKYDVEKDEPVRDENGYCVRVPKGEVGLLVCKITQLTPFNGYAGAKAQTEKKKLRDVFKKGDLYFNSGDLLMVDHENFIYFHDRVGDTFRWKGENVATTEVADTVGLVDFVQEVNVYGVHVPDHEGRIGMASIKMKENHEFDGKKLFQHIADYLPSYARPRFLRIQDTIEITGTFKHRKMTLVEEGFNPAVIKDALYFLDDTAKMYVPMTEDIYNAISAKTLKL
UniProt P31641: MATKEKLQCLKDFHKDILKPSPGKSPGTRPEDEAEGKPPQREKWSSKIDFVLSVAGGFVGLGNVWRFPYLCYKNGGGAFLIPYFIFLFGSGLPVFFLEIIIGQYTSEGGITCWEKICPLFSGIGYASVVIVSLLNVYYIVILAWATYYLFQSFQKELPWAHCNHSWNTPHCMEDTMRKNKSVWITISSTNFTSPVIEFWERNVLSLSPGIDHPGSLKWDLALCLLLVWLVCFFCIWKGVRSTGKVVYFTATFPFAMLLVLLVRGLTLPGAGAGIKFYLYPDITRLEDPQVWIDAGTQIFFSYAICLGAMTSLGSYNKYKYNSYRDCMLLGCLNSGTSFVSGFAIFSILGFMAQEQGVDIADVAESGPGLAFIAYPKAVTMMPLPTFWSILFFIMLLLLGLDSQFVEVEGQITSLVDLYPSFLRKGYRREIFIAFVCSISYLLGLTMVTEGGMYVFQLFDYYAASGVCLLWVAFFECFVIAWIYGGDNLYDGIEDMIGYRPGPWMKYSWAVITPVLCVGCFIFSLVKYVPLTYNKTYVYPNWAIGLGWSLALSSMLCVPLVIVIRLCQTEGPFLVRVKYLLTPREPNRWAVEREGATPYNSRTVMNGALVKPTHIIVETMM

What was measured:
Test in all cases: log2 fold change, soluble protein after heating vs DMSO (PISA); higher = thermal stabilisation; K562 cells, 10 uM, 30 min; active = over 0.2 and 3.5 SD of the protein, either way, in both replicates (recomputed)
erlotinib = compound: C#Cc1cccc(Nc2ncnc3cc(OCCOC)c(OCCOC)cc23)c1 [erlotinib]
In short: (§1)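 K562 cells (2×10^6 cells/mL) were treated with 10 μM compound for 30 min, and aliquots were heated for 3 min over 48°C-58°C. Pooled aliquots were extracted in PBS with 0.5% NP-40 at 4°C, and the supernatant after 21,000xg for 90 min was measured by TMTpro 16plex LC-MS/MS with channel sums equalised. Reported thermal stability, relative to control samples and from duplicates, is a log2 fold change.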

[1] = compound: C/C(=N\NC(=O)C1=CC(=CC=C1)S(=O)(=O)N2CCOCC2)/C3=C(C=CC(=C3)Cl)O
In short: as §1

[2] = compound: C1=CC(=C(C=C1Cl)C2=NC3=NC=CN=C3C(=N2)NC4=CC=NC=C4)F
In short: as §1

[3] = compound: C1=CC(=CC=C1C2=NC3=C(N2)C=C(C=C3)C(=O)N)OC4=CC=C(C=C4)Cl
In short: as §1

[4] = compound: C1=CC2=C(C=CC(=C2)/C=C\3/C(=O)NC(=NCC4=CC=CS4)S3)N=C1
In short: as §1

[5] = compound: C1=CC2=NC=CN=C2C=C1/C=C/3\C(=O)NC(=O)S3
In short: as §1

[6] = compound: C1=CC=C(C=C1)C2=NC(=C(N2)C3=CC=NC=C3)C4=CC(=C(C=C4)Cl)O
In short: as §1

[7] = compound: C1=CC=C2C(=C1)C3=NNC4=CC=CC(=C43)C2=O
In short: as §1

[8] = compound: C1CCN(C1)C(=O)NC2=CC=CC(=C2)NC3=NC=C(C(=N3)NCCC4=CN=CN4)Br
In short: as §1

[9] = compound: C1CN(CCC1(CC2=CC=C(C=C2)Cl)N)C3=NC=NC4=C3C=CN4
In short: as §1

Row | Target | log2 fold change (erlotinib) | log2 fold change [1] | log2 fold change [2] | log2 fold change [3] | log2 fold change [4] | log2 fold change [5] | log2 fold change [6] | log2 fold change [7] | log2 fold change [8] | log2 fold change [9]
1 | SLC4A7 isoform 7 (UniProt Q9Y6M7) | inactive: -0.029 | inactive: -0.131 | inactive: 0.042 | inactive: 0.09 | inactive: -0.072 | inactive: -0.018 | inactive: 0.052 | inactive: 0.01 | inactive: -0.006 | inactive: -0.02
2 | SLC12A5 (UniProt Q9H2X9) | inactive: 0.036 | inactive: 0.054 | active: -0.49 | inactive: 0.034 | inactive: 0.098 | inactive: -0.021 |  | inactive: -0.138 | inactive: 0.038 | inactive: 0.103
3 | SLC38A5 (UniProt Q8WUX1) | inactive: -0.006 | inactive: -0.017 | inactive: 0.087 | inactive: -0.002 | inactive: 0.018 | inactive: 0.05 | inactive: 0.036 | inactive: -0.065 | inactive: -0.033 | inactive: 0.11
4 | SLC35E3 (UniProt Q7Z769) | inactive: -0.007 | inactive: -0.001 | inactive: 0.142 | inactive: -0.093 | inactive: 0.074 |  |  | inactive: 0.014 | inactive: 0.091 | inactive: -0.043
5 | SLC27A1 (UniProt Q6PCB7) | inactive: -0.003 | inactive: -0.053 | inactive: 0.055 | inactive: -0.008 | inactive: 0.061 | inactive: 0 | inactive: 0.016 | inactive: 0.012 | active: -0.411 | inactive: -0.064
6 | SLC10A7 isoform 1 (UniProt Q0GE19) | inactive: -0.095 | inactive: 0.123 |  | inactive: 0.034 | inactive: 0.054 | inactive: 0.036 | inactive: -0.105 | inactive: -0.106 | inactive: -0.093 | inactive: 0.099
7 | SLC25A31 (UniProt Q9H0C2) | inactive: 0.015 | inactive: 0.016 | inactive: 0.047 | inactive: -0.013 | inactive: -0.011 | inactive: 0.009 | inactive: 0.043 | inactive: 0.021 | inactive: -0.034 | inactive: 0.036
8 | SLC35B4 (UniProt Q969S0) | inactive: -0.055 | inactive: 0.194 | inactive: -0.033 | inactive: 0.105 | inactive: 0.085 | inactive: 0.024 |  | inactive: -0.243 | inactive: -0.015 | inactive: -0.231
9 | SLC41A3 isoform 9 (UniProt Q96GZ6) | inactive: 0.031 | inactive: -0.41 | inactive: 0.108 | inactive: 0.016 | inactive: 0.231 | inactive: -0.227 |  | inactive: -0.106 | inactive: 0.06 | inactive: 0.19
10 | SLC4A1 (UniProt P02730) | inactive: -0.06 | inactive: 0.022 | inactive: 0.059 | inactive: 0.105 | inactive: -0.13 | inactive: -0.121 | inactive: 0.013 | inactive: 0.094 | inactive: 0.024 | inactive: 0.057
11 | SLC25A6 (UniProt P12236) | inactive: -0.023 | inactive: 0.018 | inactive: -0.025 | inactive: 0.014 | inactive: 0.028 | inactive: 0.016 | inactive: -0.042 | inactive: -0.003 | inactive: -0.004 | inactive: 0.015
12 | SLC27A2 (UniProt O14975) | inactive: 0 | inactive: 0.057 | inactive: 0.054 | inactive: 0.032 | inactive: 0.101 | inactive: 0.005 | inactive: 0.108 | inactive: 0.018 | inactive: -0.001 | inactive: 0.035
13 | SLC6A6 (UniProt P31641) | inactive: 0.001 | inactive: 0.013 | inactive: 0.123 | inactive: -0.005 | inactive: 0.003 | inactive: 0.055 | inactive: 0.007 | inactive: -0.054 | inactive: 0.087 | inactive: 0.083
14 | SLC35A5 (UniProt Q9BS91) | inactive: -0.037 | inactive: -0.123 | inactive: -0.08 | inactive: 0.015 | inactive: 0.054 |  |  | inactive: -0.06 | inactive: 0.06 | inactive: -0.037

2 records drawn at random from those above:
Row | Target | log2 fold change (erlotinib) | log2 fold change [1] | log2 fold change [2] | log2 fold change [3] | log2 fold change [4] | log2 fold change [5] | log2 fold change [6] | log2 fold change [7] | log2 fold change [8] | log2 fold change [9]
6 | SLC10A7 isoform 1 (UniProt Q0GE19) | inactive: -0.095 | inactive: 0.123 |  | inactive: 0.034 | inactive: 0.054 | inactive: 0.036 | inactive: -0.105 | inactive: -0.106 | inactive: -0.093 | inactive: 0.099
3 | SLC38A5 (UniProt Q8WUX1) | inactive: -0.006 | inactive: -0.017 | inactive: 0.087 | inactive: -0.002 | inactive: 0.018 | inactive: 0.05 | inactive: 0.036 | inactive: -0.065 | inactive: -0.033 | inactive: 0.11
